“And” between values parts separate entries of the source, which are not always exact repeats. Equal entries are not always repeated. Structures can show the parent of a compound that is named as a salt. The list shows a part of the results. Single values are uncertain here, since repeats match poorly.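 In a drug-repurposing library screen, luminescence reads luciferase driven by eight TEAD-binding elements, stably integrated into human kidney-derived cells. Compounds scoring over five robust Z scores above the plate mean are called hits.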
System: HEK293A TEAD-LUC reporter
Experiment: TEAD-luciferase reporter activity (YAP activation), robust Z score vs plate; higher = stronger YAP/TEAD activation
Details: 24 h

Row | Structure (SMILES) | TEAD-luciferase reporter activity (compound concentration: 200 nM) | TEAD-luciferase reporter activity (compound concentration: 2 uM) | TEAD-luciferase reporter activity (compound concentration: 10 uM)
1 | COc1cc(C)nc(O)c1CNC(=O)c1c(C)n([C@H](C)C2CCN(CC(F)(F)F)CC2)c2ccccc12 | inactive: -0.603 | inactive: 1.17 | inactive: 3.54
2 | C[C@]12CC[C@H](OS(=O)(=O)[O-])CC1=CC[C@@H]1[C@@H]2CC[C@]2(C)C(=O)CC[C@@H]12 [Prasterone sulfate] |  | inactive: 2.74 | 
3 | C[C@]12CC[C@H](OS(=O)(=O)[O-])CC1=CC[C@@H]1[C@@H]2CC[C@]2(C)C(=O)CC[C@@H]12 | inactive: -0.944 |  | inactive: -1.85
4 | C[N+](C)(C)CCCCCCCCCC[N+](C)(C)C | inactive: -1.43 | inactive: -0.559 | inactive: -0.555
5 | CCC1(C)CC(=O)NC(=O)C1 | inactive: -1.65 | inactive: -0.403 | inactive: -1.23
6 | CCC1(c2cccc(O)c2)CCCCN(C)C1 (stereo unspecified) [meptazinol] | inactive: 0.893 | inactive: -1.04 | inactive: 0.0138
7 | O=C(N[C@H]1N=C(c2ccccc2F)c2cccc3c2N(CC3)C1=O)c1cc2ccccc2[nH]1 | inactive: 0.746 and inactive: -0.645 | inactive: 2.22 and inactive: 1.86 | 
8 | COc1ccccc1CN[C@H]1C2CCN(CC2)[C@H]1C(c1ccccc1)c1ccccc1 | inactive: 0.942 | inactive: 0.0809 | inactive: 0.445
9 | C=CCN1C[C@H](C(=O)N(CCCN(C)C)C(=O)NCC)C[C@@H]2c3cccc4[nH]cc(c34)C[C@H]21 | inactive: -1.69 | inactive: -0.512 | inactive: 1.39
10 | COc1cc2c(cc1OC)C(c1ccc(N)cc1)=NN=C(C)C2 | inactive: 1.57 | inactive: -0.0959 | inactive: -0.4
11 | C=CCN.C=CCNCCCCCCCCCC.C=CCNCCCCCC[N+](C)(C)C.ClCC1CO1 [colesevelam hydrochloride] | inactive: -1.47 | inactive: 0.985 | inactive: 0.12
12 | CCOC(=O)C1(c2ccccc2)CCN(CCc2ccc(N)cc2)CC1 | inactive: 0.275 | inactive: -2.05 | inactive: 0.364
13 | CC(C)C12O[C@H]1[C@@H]1O[C@@]13C1(C)CCC4=C(COC4=O)[C@]1(O)C[C@@H]1O[C@@]13[C@@H]2O (stereo partly drawn) [5(R)-Hydroxytriptolide] | inactive: -2.85 | inactive: -1.99 | inactive: -2.77
14 | O=C1C(O)N=C(c2ccccc2F)c2cc(Cl)ccc2N1CCO (stereo unspecified) | inactive: -1.29 | inactive: -0.583 | inactive: -1.4
15 | N=C1NC(=O)C(c2ccccc2)O1 (stereo unspecified) [Pemoline] | inactive: 1.07 | inactive: -1.16 | inactive: -0.358
16 | CN(C)C[C@@H]1CCCC[C@@]1(O)c1cccc(O)c1 [O-Desmethyltramadol] | inactive: -0.35 | inactive: -0.0784 | inactive: 0.917
17 | Nc1nc(N)nc(Nc2ccc([As]3SCC(CO)S3)cc2)n1 (stereo unspecified) [Melarsoprol] | inactive: -1.44 | inactive: 1.3 | inactive: 4.13
18 | COc1cccc([C@@]2(O)CCCC[C@@H]2CN(C)C)c1 [Tramadol] | inactive: -0.353 |  | inactive: -0.715
19 | COc1cccc([C@@]2(O)CCCC[C@@H]2CN(C)C)c1 [Tramadol XL] |  | inactive: -1.5 | 

Row | Structure (SMILES) | TEAD-luciferase reporter activity (compound concentration: 200 nM) | TEAD-luciferase reporter activity (compound concentration: 2 uM) | TEAD-luciferase reporter activity (compound concentration: 10 uM)
20 | C=C(C)[C@H]1CN[C@H](C(=O)O)[C@H]1CC(=O)O | inactive: -0.367 | inactive: -0.76 | inactive: 0.257
21 | CCC1=C(C)NN=C(c2ccc(OC)c(OC)c2)c2cc(OC)c(OC)cc21 [dextofisopam] | inactive: 2.61 | inactive: -0.674 | inactive: -1.55
22 | O=C(Nc1c(Cl)cncc1Cl)C(=O)c1cn(Cc2ccc(F)cc2)c2ncccc12 [Ronomilast] | inactive: -0.436 | inactive: -0.902 | inactive: -0.658
23 | CC(=O)NC(Cc1ccc(N(CCCl)CCCl)cc1)C(=O)O (stereo unspecified) | inactive: 0.0573 | inactive: -0.687 | inactive: 1.08
24 | COc1cccc2c1C(=O)c1c(O)c3c(c(O)c1C2=O)C[C@@](O)(C(=O)CO)C[C@@H]3O[C@H]1C[C@H](N2CCO[C@H](OC)C2)[C@H](O)[C@H](C)O1 | inactive: -1.26 | inactive: -2.32 | inactive: -1.18
25 | C[C@H]1CCCC(O)CCC/C=C/c2cc(O)cc(O)c2C(=O)O1 (stereo partly specified) | inactive: -0.686 | inactive: -1.9 | inactive: -1.28
26 | C[C@]12C[C@H]3S[C@H]3C[C@@H]1CC[C@@H]1[C@@H]2CC[C@]2(C)[C@@H](O)CC[C@@H]12 | inactive: -0.232 | inactive: -1.28 | inactive: -0.39
27 | O=C1C2CCN(CC2)C1(CO)CO | inactive: -0.0669 | inactive: -1.04 | inactive: 0.445
28 | CC1NCCOC1c1ccccc1 (stereo unspecified) | inactive: -0.0142 | inactive: -0.832 | inactive: -1.13
29 | CC(C)Cc1ccc(C(Nc2cccc(C(=O)c3cn(CCCC(=O)O)c4ccccc34)c2)c2ccc(CC(C)C)cc2)cc1 | inactive: -0.588 | inactive: -1.38 | inactive: -0.882
30 | CC(C)(NC(=O)c1cc2c(n(CC3CCCCC3)c1=O)CCCCCC2)C(=O)NN | inactive: -1.02 | inactive: -0.855 | inactive: -0.379
31 | NC(=O)c1cccc([C@H]2C[C@H]3CC[C@@H](C2)N3CCN(CC2CCCCC2)C(=O)[C@@H](O)CO)c1 [Axelopran] | inactive: -0.871 | inactive: 0.0308 | inactive: 1.66
32 | CC(C)OC(=O)N[C@H]1Cc2c(n(Cc3ccccn3)c3ccc(C#N)cc23)C1 | inactive: -0.72 | inactive: -1.57 | inactive: 0.819
33 | CC12CCC3C4CCC(=O)C=C4CCC3C1CCC2OC(=O)CCc1ccccc1 (stereo unspecified) [Nandrolone phenylpropionate] | inactive: 2.28 | inactive: -1.88 | inactive: -1.51
34 | CC(C)(SCC(=O)Nc1ccc([As](O)O)cc1)[C@@H](N)C(=O)O | inactive: -0.0772 | inactive: 0.721 | inactive: -0.177
35 | CN1CCC=C2c3nc(N)sc3CCC21 (stereo unspecified) | inactive: -0.836 | inactive: -0.973 | inactive: -1.22
36 | CC(=O)C1CC[C@@]2(O)C3CCC4=CC(=O)CCC4(C)C3CCC12C (stereo partly specified) | inactive: 1.83 | inactive: -0.726 | inactive: 1.37
37 | CC(C)[C@@]1(NC(=O)[C@@H]2C[C@@H]3c4cccc5[nH]cc(c45)C[C@H]3N(C)C2)O[C@@]2(O)[C@@H]3CCCN3C(=O)[C@H](Cc3ccccc3)N2C1=O | inactive: -3.1 | inactive: -0.859 | inactive: -0.0149
38 | C=CCC1(C(C)C#CCC)C(=O)N=C(O)N(C)C1=O (stereo unspecified) [Methohexital] | inactive: -0.771 | inactive: -0.955 | inactive: 2.08

Some of the entries so far, as tab-separated lines:
Row	Structure (SMILES)	TEAD-luciferase reporter activity (compound concentration: 200 nM)	TEAD-luciferase reporter activity (compound concentration: 2 uM)	TEAD-luciferase reporter activity (compound concentration: 10 uM)
20	C=C(C)[C@H]1CN[C@H](C(=O)O)[C@H]1CC(=O)O	inactive: -0.367	inactive: -0.76	inactive: 0.257
21	CCC1=C(C)NN=C(c2ccc(OC)c(OC)c2)c2cc(OC)c(OC)cc21 [dextofisopam]	inactive: 2.61	inactive: -0.674	inactive: -1.55
22	O=C(Nc1c(Cl)cncc1Cl)C(=O)c1cn(Cc2ccc(F)cc2)c2ncccc12 [Ronomilast]	inactive: -0.436	inactive: -0.902	inactive: -0.658
23	CC(=O)NC(Cc1ccc(N(CCCl)CCCl)cc1)C(=O)O (stereo unspecified)	inactive: 0.0573	inactive: -0.687	inactive: 1.08
24	COc1cccc2c1C(=O)c1c(O)c3c(c(O)c1C2=O)C[C@@](O)(C(=O)CO)C[C@@H]3O[C@H]1C[C@H](N2CCO[C@H](OC)C2)[C@H](O)[C@H](C)O1	inactive: -1.26	inactive: -2.32	inactive: -1.18
25	C[C@H]1CCCC(O)CCC/C=C/c2cc(O)cc(O)c2C(=O)O1 (stereo partly specified)	inactive: -0.686	inactive: -1.9	inactive: -1.28
26	C[C@]12C[C@H]3S[C@H]3C[C@@H]1CC[C@@H]1[C@@H]2CC[C@]2(C)[C@@H](O)CC[C@@H]12	inactive: -0.232	inactive: -1.28	inactive: -0.39
27	O=C1C2CCN(CC2)C1(CO)CO	inactive: -0.0669	inactive: -1.04	inactive: 0.445
28	CC1NCCOC1c1ccccc1 (stereo unspecified)	inactive: -0.0142	inactive: -0.832	inactive: -1.13
29	CC(C)Cc1ccc(C(Nc2cccc(C(=O)c3cn(CCCC(=O)O)c4ccccc34)c2)c2ccc(CC(C)C)cc2)cc1	inactive: -0.588	inactive: -1.38	inactive: -0.882
30	CC(C)(NC(=O)c1cc2c(n(CC3CCCCC3)c1=O)CCCCCC2)C(=O)NN	inactive: -1.02	inactive: -0.855	inactive: -0.379
31	NC(=O)c1cccc([C@H]2C[C@H]3CC[C@@H](C2)N3CCN(CC2CCCCC2)C(=O)[C@@H](O)CO)c1 [Axelopran]	inactive: -0.871	inactive: 0.0308	inactive: 1.66
32	CC(C)OC(=O)N[C@H]1Cc2c(n(Cc3ccccn3)c3ccc(C#N)cc23)C1	inactive: -0.72	inactive: -1.57	inactive: 0.819
33	CC12CCC3C4CCC(=O)C=C4CCC3C1CCC2OC(=O)CCc1ccccc1 (stereo unspecified) [Nandrolone phenylpropionate]	inactive: 2.28	inactive: -1.88	inactive: -1.51
34	CC(C)(SCC(=O)Nc1ccc([As](O)O)cc1)[C@@H](N)C(=O)O	inactive: -0.0772	inactive: 0.721	inactive: -0.177
35	CN1CCC=C2c3nc(N)sc3CCC21 (stereo unspecified)	inactive: -0.836	inactive: -0.973	inactive: -1.22
36	CC(=O)C1CC[C@@]2(O)C3CCC4=CC(=O)CCC4(C)C3CCC12C (stereo partly specified)	inactive: 1.83	inactive: -0.726	inactive: 1.37

(listing goes on)

Row | Structure (SMILES) | TEAD-luciferase reporter activity (compound concentration: 200 nM) | TEAD-luciferase reporter activity (compound concentration: 2 uM) | TEAD-luciferase reporter activity (compound concentration: 10 uM)
39 | Cc1cccc[n+]1[Pt-2]([NH3+])([Cl])[Cl] [picoplatin] |  | inactive: 0.0759 | 
40 | Cc1cccc[n+]1[Pt-2]([NH3+])([Cl])[Cl] | inactive: 1.81 |  | inactive: -0.196
41 | C[As](C)SC[C@H](NC(=O)CC[C@H](N)C(=O)O)C(=O)NCC(=O)O [Darinaparsin] | inactive: -1 | inactive: -1.77 | inactive: 1.92
42 | Cc1nnc2n1-c1ccc(Cl)cc1C(c1ccccc1Cl)=NC2 [Triazolam] | inactive: -1.32 |  | inactive: 1.34
43 | C[CH2][Hg][S]c1ccccc1C(=O)[O-] | inactive: 2.65 | inactive: 1.02 | active: 9.15
44 | C[N+]1(C)CCCC1COC(=O)C(O)(c1ccccc1)c1ccccc1 (stereo unspecified) [Poldine Methylsulfate] | inactive: 0.841 | inactive: 1.67 | inactive: 0.695
45 | COc1ccc2c3c1O[C@H]1[C@@H](O)C=C[C@H]4[C@@H](C2)N(C)CC[C@@]341 [Codeine phosphate] | inactive: 0.232 | inactive: 1.19 | inactive: -2.44
46 | O=C1NC(=O)C(c2ccccc2)(c2ccccc2)C(=O)N1 | inactive: -1.03 | inactive: 1.47 | inactive: -0.667
47 | CC(C)(N1CC1C#N)N1CC1C(N)=O (stereo unspecified) [azimexon] | inactive: 0.552 | inactive: -1.41 | inactive: 1.09
48 | COc1ccc(C(=O)N2CCCC2C(=O)N2CCC(N3CCCC3=O)CC2)cc1 (stereo unspecified) | inactive: -0.979 |  | inactive: 4.57
49 | C=CCN1C[C@H](C)N(C(c2ccsc2)c2cccc(O)c2)C[C@H]1C (stereo partly specified) | inactive: 1.75 | inactive: -0.612 | inactive: -0.807
50 | O=C(NCc1ccncc1)c1cnc(Nc2cccc(Cl)c2)nc1C(F)(F)F | inactive: -0.312 | inactive: -0.511 | inactive: -0.0144
51 | CC(C)(NC(=O)c1cc2c(n(CC3CCCCC3)c1=O)CCCCCC2)C(=O)N1CCC(NS(C)(=O)=O)C1 (stereo unspecified) | inactive: -0.453 | inactive: 0.197 | inactive: 0.55
52 | Cc1cccc(C(O)c2c[nH]cn2)c1C (stereo unspecified) | inactive: 0.41 | inactive: -0.836 | inactive: 0.123
53 | CCC(=O)C(CCN1CCOCC1)(c1ccccc1)c1ccccc1 | inactive: -1.11 | inactive: 0.389 | inactive: -1.45
54 | CC(C)CN/C(=N/C#N)c1cccnc1 | inactive: 2.06 | inactive: 4.46 | inactive: -0.264
55 | Fc1cccc(Br)c1NC1=NCCN1 [Romifidine hydrochloride] | inactive: 0.915 | inactive: 0.894 | inactive: 1.27
56 | CC(C)N(CCC(C(N)=O)(c1ccccc1)c1ccccn1)C(C)C (stereo unspecified) | inactive: -1.01 |  | inactive: -0.137
57 | CC(C)N(CCC(C(N)=O)(c1ccccc1)c1ccccn1)C(C)C (stereo unspecified) [disopyramide SR, Ethypharm] |  | inactive: -2.25 | 

Source: the supplement of paper PMC10735217
